Laboratory results from article PMC8306578 (International Journal of Molecular Sciences, 2021).

Assay: general procedure: Fmoc solid-phase peptide synthesis; 2-chlorotrityl chloride polystyrene resin; DIC/HOBt
Settings: conjugation step

DFO-c(RGDyK)
conjugation yield: 30%
